Source: ChEMBL document CHEMBL3526137, “Comparison of cryopreserved HepaRG cells with cryopreserved human hepatocytes for prediction of clearance for 26 drugs” (Drug Metab Dispos, 2012)

Test: physchem
Settings: octanol/water

For `COC(=O)C1=C(C)NC(C)=C(C(=O)OC)C1c1ccccc1[N+](=O)[O-]` [NIFEDIPINE], the logP was 3.3.
